For at least one entry, the source does not settle the construct or the ends of the probe.

The chains behind the UniProt entries cited, without tags or fusion partners. Residues count along the entry.
UniProt Q13148, 1-80: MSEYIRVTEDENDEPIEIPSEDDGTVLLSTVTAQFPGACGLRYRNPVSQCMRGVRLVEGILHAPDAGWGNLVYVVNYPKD

The record followed here is paper PMC5491494.

The series addresses TDP-43 NTD (wild type) (Homo sapiens) (UniProt Q13148). In words: EMSA. The conditions noted are these: specific but low affinity; recombinant protein; residues 1-80; protein details: N-terminal His (pET-28a(+)); single-stranded DNA.

TGTGTGTGTGTG [(TG)6 oligonucleotide]: the binding result is reported as “binds”.
